Measurements reported in PubChem BioAssay AID1259254 (NCATS, 2017).

- Test: 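Genome-wide screen for genes that prevent DNA re-replication in cancer cells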 (primary screen)
- Cell system: human HCT116 colorectal cancer cells
- Reagents: single siRNA against human genes
- Time to read-out: 3 days
- Measured: 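Imaged Hoechst DNA stain sorts each cell into a cycle phase by DNA amount; per plate, G2 fraction set to 0% for non-targeting and 100% for GMNN siRNA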
- Reading the numbers: G2 robust z-score: higher = more G2 cells, more excess DNA replication
- Rule for the call: 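Active siRNAs have a G2 robust z of 5 or more median absolute deviations over the median, which in these data means about 38% or higher of GMNN control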
The whole screen tested about 59,000 reagents; shown is an unselected part. Of all reagents, about 1,550 (2.6%) are marked active. 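G2 share is only a proxy for re-replication; each gene was hit by three separate siRNAs, and active genes were retested.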 A number with no mark means an inactive call. Reagents against one gene are numbered here. Further read-outs or replicates are left out here. Not stated in the record: the amount of reagent.

The opening 4 entries, ahead of the listing:
| target | reagent no. | G2 robust z-score |
| --- | --- | --- |
| ATP13A3 | 1 | 0.469 |
| ATP13A3 | 2 | -0.721 |
| ATP13A3 | 3 | -0.55 |
| MAP4K1 | 1 | 0.017 |

The listing, from the start:
| target | reagent no. | G2 robust z-score |
| --- | --- | --- |
| ATP13A3 | 1 | 0.469 |
| ATP13A3 | 2 | -0.721 |
| ATP13A3 | 3 | -0.55 |
| MAP4K1 | 1 | 0.017 |
| MAP4K1 | 2 | -0.0427 |
| MAP4K1 | 3 | -0.859 |
| CCNH | 1 | -0.815 |
| CCNH | 2 | 10.2 (active) |
| CCNH | 3 | 1.38 |
| MRPL36 | 1 | 4.77 |
| MRPL36 | 2 | 0.569 |
| MRPL36 | 3 | 6.81 (active) |
| OR2H2 | 1 | 0.138 |
| OR2H2 | 2 | -0.206 |
| OR2H2 | 3 | -0.6 |
| SLC35G2 | 1 | -0.78 |
| SLC35G2 | 2 | -0.534 |
| SLC35G2 | 3 | -0.885 |
| ACTG1 | 1 | -0.842 |
| ACTG1 | 2 | -1.02 |
| ACTG1 | 3 | 1.22 |
| USP8P1 | 1 | -0.403 |
| USP8P1 | 2 | 0.662 |
| USP8P1 | 3 | 1.25 |
| IRX3 | 1 | -1.01 |
| IRX3 | 2 | -0.812 |
| IRX3 | 3 | -0.321 |
| C1GALT1C1 | 1 | -0.544 |
| C1GALT1C1 | 2 | -0.998 |
| C1GALT1C1 | 3 | -0.103 |
| NUCB2 | 1 | -0.211 |
| NUCB2 | 2 | -0.545 |
| NUCB2 | 3 | -1.16 |
| YIF1A | 1 | 0.348 |
| YIF1A | 2 | 0.952 |
| YIF1A | 3 | 0.782 |
| PCYOX1 | 1 | 2.86 |
| PCYOX1 | 2 | 1 |
| PCYOX1 | 3 | -0.00821 |
| HYCC2 | 1 | -0.403 |
| HYCC2 | 2 | -0.198 |
| HYCC2 | 3 | 0.0804 |
| LRRC74BNL | 1 | -1.07 |
| LRRC74BNL | 2 | 3.56 |
| LRRC74BNL | 3 | 1.45 |
| HLA-A | 1 | -0.717 |
| HLA-A | 2 | 0.958 |
| HLA-A | 3 | -0.236 |
| DNM1 | 1 | -1.26 |
| DNM1 | 2 | 0.128 |
| DNM1 | 3 | -0.713 |
| LMBRD2 | 1 | -0.368 |
| LMBRD2 | 2 | -0.167 |
| LMBRD2 | 3 | 2.55 |
| HRH3 | 1 | -0.408 |
| HRH3 | 2 | 3.4 |
| HRH3 | 3 | -1.08 |
| RTL8A | 1 | 0.701 |
| RTL8A | 2 | 0.452 |
| RTL8A | 3 | 1.74 |
| PRDM5 | 1 | -0.293 |
| PRDM5 | 2 | 0.276 |
| PRDM5 | 3 | -0.224 |
| SIGLEC12 | 1 | -0.359 |
| SIGLEC12 | 2 | 0.999 |
| SIGLEC12 | 3 | 1.47 |
| SEC11B | 1 | -0.355 |
| SEC11B | 2 | 6.69 (active) |
| SEC11B | 3 | -0.787 |
| CUL5 | 1 | 1.76 |
| CUL5 | 2 | 3.81 |
| CUL5 | 3 | -0.404 |
| USP5 | 1 | -1.64 |
| USP5 | 2 | -0.878 |
| USP5 | 3 | -0.282 |
| LPCAT1 | 1 | 8.6 (active) |
| LPCAT1 | 2 | -0.256 |
| LPCAT1 | 3 | 0.184 |
| ZNF322 | 1 | 0.399 |
| ZNF322 | 2 | -0.527 |
| ZNF322 | 3 | 1.6 |
| MMP12 | 1 | 2.38 |
| MMP12 | 2 | 0.66 |
| MMP12 | 3 | -1.24 |
| POLR2A | 1 | 4.29 |
| POLR2A | 2 | 1.69 |
| POLR2A | 3 | 3.2 |
